From patent US11485776B2, “Antibodies against infectious diseases” (priority 2015, dated 2022)
“And” between values parts separate entries of the source, which are not always exact repeats. Equal values may be shown once.

Tested on: CaENO1

B1: CaS1 scFv: anti-CaENO1 scFv monoclonal antibody from chicken phage library; light chain SEQ ID NO:11, heavy chain SEQ ID NO:12 (antibody, V domains shown)
VH: TVTLDESGGGLQTPRGALSLVCKASGFTFIDYGMQWVRQAPGKGLEWVAGIGSSGSSTNYGAAVKGRATISRDDGQSTVRLQLNNLRAEDTGTYYCAKSAGGYCVNGAGCNGGSIDAWGHGTEVIVSS
VL: ALTQPSSVSANLGGTVKITCSGGSGSYGWYQQKSPGSAPVTVIYSNNQRPSNIPSRFSGSPSGSTGTLTITGVQADDEAVYFCGSRDSSYVGVFGAGTTLTVL
modifications: scFv linker; amino acid sequence comprised in a heavy chain of an anti-CaENO1 scFv monoclonal antibody (CaS1); amino acid sequence comprised in a light chain of an anti-CaENO1 scFv monoclonal antibody (CaS1)
Epitope on CaENO1: residues 235 to 300 and 240[…]249 (SEQ ID NO:3) and 278[…]292
